At least one compound was matched to its structure with a doubt left.
Assays:
GBP-1 = test: LPS-induced GBP-1 mRNA in THP-1 monocytes, real time PCR; type: cell-based, human; conditions: THP-1, LPS, at 2 and 6 hours; BMS-205820 2 uM, dexamethasone 100 nM; FIG. 89A
Experimental: (§1) For real time PCR analyses, THP-1 cells (10^7/group) were cultured at 10^6/ml in RPMI containing 10% heat inactivated fetal calf serum, 2 mM L-glutamine with either medium, BMS-205820 (2 uM), or dexamethasone (100 nM) for 30 minutes at 37° C. in 5% CO2. LPS was added to each group (100 ng/ml), and the incubation continued for 0.5-8 hr. At the end of each time point, cells were pelleted, washed one time with 10 ml PBS, and stored at −80° C.
(§2) Total RNA was isolated from cells using the RNeasy® Kit from Qiagen (Valencia, Calif.), including the on-the-column DNase digestion procedure. RNA quality and quantity were evaluated using UV spectrometry. Total RNA was used for first-strand cDNA synthesis using the SuperScript™ First-Strand Synthesis System for RT-PCR (Invitrogen, Carlsbad, Calif.) following the manufacturer's instructions with 50 ng of random hexamers.
(§3) Reactions were performed in a total volume of 40 μl. The master mix contained SYBR Green I Dye, 50 mM Tris-HCl pH8.3, 75 mM KCl, DMSO, Rox reference dye, 5 mM MgCl2, 2 mM dNTP, Platinum Taq High Fidelity (1 U/reaction), and 0.5 μM of each primer. Eight microliters of diluted cDNA was used in each PCR reaction. […]
(§4) A relative value for the initial target concentration in each reaction was determined using the TaqMan 5700 software. […]

GBP-5 = test: LPS-induced GBP-5 mRNA in THP-1 monocytes, real time PCR; type: cell-based, human; conditions: THP-1, LPS, at 2 and 6 hours; BMS-205820 2 uM, dexamethasone 100 nM; FIG. 89B
Experimental: as §1, §2, §3, §4

SMILES: C[C@@H]1C[C@H]2[C@@H]3CCC4=CC(=O)C=C[C@]4(C)[C@@]3(F)[C@@H](O)C[C@]2(C)[C@@]1(O)C(=O)CO [dexamethasone]
- inhibition of GBP-1 mRNA induction (GBP-1): significantly inhibited
- inhibition of GBP-5 mRNA induction (GBP-5): significantly inhibited
